# Data taken from patent US20030036633A1, “DNA encoding bradykinin B1 receptor” (Merck & Co., Inc., priority 1994, published 2003).
# “Also recorded” adds a separate entry of the source. Part of at least one peptide drawing is inferred or uncertain, most often the ends.
# Target: T1, cloned human B1 bradykinin receptor in transiently transfected COS-7 cells (COS 33E9) (Homo sapiens, UniProt P46663)
# T1 construct: the full-length open reading frame of the B1 DNA (encoding a protein of about 40.4 kDa =about base 209 to about base 1267); expressed in transfected cells; host or cells: COS-7 cells, transient electroporation of clone 33E9 (pcDNA3 library vector)
# T1 sequence (P46663 1-353): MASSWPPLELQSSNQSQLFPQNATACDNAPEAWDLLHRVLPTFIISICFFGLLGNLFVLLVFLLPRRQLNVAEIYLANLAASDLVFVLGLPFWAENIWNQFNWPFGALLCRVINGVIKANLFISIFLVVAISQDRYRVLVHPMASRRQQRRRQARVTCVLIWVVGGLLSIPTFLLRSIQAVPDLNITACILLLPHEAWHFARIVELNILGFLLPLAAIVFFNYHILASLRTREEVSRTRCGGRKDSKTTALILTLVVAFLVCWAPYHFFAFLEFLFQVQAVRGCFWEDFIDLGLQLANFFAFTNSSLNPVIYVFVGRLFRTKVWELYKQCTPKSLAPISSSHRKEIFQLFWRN
# Assay: Displacement of 1 nM [3H]des-Arg10kallidin, membrane binding assay, COS 33E9
# Settings: cloned B1 receptor expressed in COS-7 cells
# Procedure: Transient expression of the cloned B1 bradykinin receptor in COS-7 cells was accomplished by electroporation using a Biorad Gene Pulser. […] Binding assays were performed at room temperature for 45 minutes. Reactions were terminated by filtration using an Inotech cell harvester onto glass fiber filters (Inotech) that had been briefly soaked in 0.3% polyethyleneimine. The filters were washed five times with 1 ml per well of cold PBS and counted in a liquid scintillation counter. Alternatively, reactions were collected using a Tomtec cell harvester 96 onto 0.3% polyethyleneimine presoaked glass fiber filters (Pharmacia, printed filtermat for use with the 1205 Betaplate). The filter was washed five times with a total of 10 ml per well of cold 1× PBS, dried and sealed in a bag (Pharmacia) containing scintillation fluid. Counting was accomplished using a LKB1205 Betaplate liquid scintillation counter.
structure (smiles),measurement,value
N=C(N)NCCC[C@@H](N)C(=O)N[C@@H](CCCNC(=N)N)C(=O)N1CCC[C@H]1C(=O)N1C[C@H](O)C[C@H]1C(=O)NCC(=O)N[C@@H](Cc1cccs1)C(=O)N[C@@H](CO)C(=O)N1Cc2ccccc2C[C@@H]1C(=O)N1[C@H](C(=O)N[C@@H](CCCNC(=N)N)C(=O)O)C[C@@H]2CCCC[C@@H]21 [Hoe 140],"affinity for / displacement of [3H]des-Arg10kallidin from the cloned receptor, in words",very low affinity; also recorded: does not
